For at least one compound, name, drawing or mass did not settle the structure.
Assays:
[1] = system: differentiated adipocytes; assay: aP2 secretion into conditioned medium of differentiated adipocytes (immunoblot); assay type: cell-based; conditions: 0.25 mM lipid in DMEM with 10% CCS
From the text: HEK 293 cells were maintained in DMEM with 10% fetal bovine serum. FABP-deficient cell lines were established as previously described. Cao, H. et al. Identification of a lipokine, a lipid hormone linking adipose tissue to systemic metabolism. Cell 134, 933-944 (2008). Makowski, L. et al. Lack of macrophage fatty-acid-binding protein aP2 protects mice deficient in apolipoprotein E against atherosclerosis. Nat Med 7, 699-705 (2001). Pre-adipocytes were maintained in DMEM with 10% bovine calf serum and differentiated into adipocytes in DMEM with 10% cosmic calf serum (CCS) using a standard differentiation protocol. To induce lipolysis, differentiated adipocytes were treated with forskolin at 20 nM, or IBMX 1 mM/dibutyryl cAMP 1 mM for one hour. For lipid treatments, 0.25 mM palmitate or stearate was dissolved in DMEM with 10% CCS and added to adipocytes cultured in 12-well plates. At the end of one hour, the medium was replaced with the same lipid-containing medium, and conditioned medium was collected an additional hour later. […]
Tissue protein lysate and conditioned medium from adipocytes were separated on SDS-PAGE gels and stained with Coomassie (Biorad Laboratory), or were detected with immunoblotting using the following antibodies: adiponectin from Santa Cruz Biotechnology, MFG-E8 from Calbiochem, caveolin-1 from BD Bioscience, AKT from Cell Signaling Technology. […]

fat explants = assay: aP2 secretion from fat explants cultured ex vivo; assay type: cell-based, mice; conditions: stimulation of lipolysis vs baseline

| SMILES | aP2 secretion from adipocytes treated with fatty acids [1] | aP2 secretion from fat explants (fat explants) |
| --- | --- | --- |
| CCCCCCCCCCCCCCCCCC(=O)O [stearate] | significantly increased aP2 secretion |  |
| C=C[C@@]1(C)CC(=O)[C@]2(O)[C@@]3(C)[C@@H](O)CCC(C)(C)[C@@H]3[C@H](O)[C@H](OC(C)=O)[C@@]2(C)O1 [forskolin] |  | very substantial increase in aP2 secretion |
| CCCCCCCCCCCCCCCC(=O)O [palmitate] | significantly increased aP2 secretion |  |
